The full ranking holds about 33,000 sequences; the median of “E-score (-0.5 to 0.5)” is about -0.015, and the highest 2% start at about 0.3. Some of the results follow.

This assay addresses T1, Abf1 (UniProt P14164).
T1 sequence: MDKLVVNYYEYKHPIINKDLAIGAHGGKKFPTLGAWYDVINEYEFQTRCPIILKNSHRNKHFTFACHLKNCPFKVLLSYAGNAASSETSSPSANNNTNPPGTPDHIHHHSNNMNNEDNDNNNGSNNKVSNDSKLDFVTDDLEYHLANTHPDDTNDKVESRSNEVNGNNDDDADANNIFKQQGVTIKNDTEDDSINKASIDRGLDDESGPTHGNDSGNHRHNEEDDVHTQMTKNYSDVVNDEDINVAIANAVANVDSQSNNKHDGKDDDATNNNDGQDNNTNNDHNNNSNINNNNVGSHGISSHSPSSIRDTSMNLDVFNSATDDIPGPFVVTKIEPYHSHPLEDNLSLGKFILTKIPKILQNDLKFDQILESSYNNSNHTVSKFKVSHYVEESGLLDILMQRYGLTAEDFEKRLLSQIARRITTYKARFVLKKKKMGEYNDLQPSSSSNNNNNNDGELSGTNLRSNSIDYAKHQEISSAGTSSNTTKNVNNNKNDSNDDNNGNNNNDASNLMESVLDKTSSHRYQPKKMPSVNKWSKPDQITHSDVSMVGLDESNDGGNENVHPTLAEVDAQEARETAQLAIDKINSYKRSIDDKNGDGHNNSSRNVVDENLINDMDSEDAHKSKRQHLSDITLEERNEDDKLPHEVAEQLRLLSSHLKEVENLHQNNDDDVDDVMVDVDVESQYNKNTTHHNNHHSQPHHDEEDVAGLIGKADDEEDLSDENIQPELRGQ
As to the kind of experiment: PBM E-score (8-mer binding enrichment) (E-score (-0.5 to 0.5)); higher = stronger / more preferred TF binding. The settings on record: protein concentration: 200 nM; construct: GST-full length. As to the method: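 Universal 'all 10-mer' protein binding microarrays (Agilent AMADID 015681) probed with GST-tagged S. cerevisiae TFs (full-length or DBD) made by in vitro transcription/translation (PURExpress), about 100-200 nM. Bound TF was detected with fluorescent anti-GST. Each ungapped 8-mer (which stands for itself and its reverse complement) is scored by the PBM enrichment score (E-score), a modified Wilcoxon-Mann-Whitney statistic from -0.5 to +0.5, computed with the Universal PBM Analysis Suite. Scale: above 0.35 generally sequence-specific binding.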
For the sequence ATCAAAAA, the “PBM E-score” value was found to be 0.106.

Turning to CCCTCCAC, the “PBM E-score” value was -0.185.

In the case of CAGCAGGG, the “PBM E-score” value is -0.11.

Take CGTCACAC: the “PBM E-score” value was 0.261.

Regarding AACATTAG, the “PBM E-score” value is -0.126.

As for TACAAAAA, the “PBM E-score” value was 0.174.

With CAGACGGC, the “PBM E-score” value is 0.0713.

As for GCACAGGC, the “PBM E-score” value was -0.0767.

Consider GACGTTGA, for which the “PBM E-score” value was 0.051.

Consider AGCAGGCG, for which the “PBM E-score” value is -0.0906.

Consider CGGGCCGC, for which the “PBM E-score” value was -0.0853.

Regarding ACGCATGA, the “PBM E-score” value worked out at 0.0377.

Take TGAGCACA: the “PBM E-score” value turned out to be 0.0475.

With CAATTCAC, the “PBM E-score” value is -0.0392.

For CCTCACGC, the “PBM E-score” value was found to be 0.00968.

On to ACGTACCT, for which the “PBM E-score” value worked out at 0.253.

On to CCCCGACA, for which the “PBM E-score” value is -0.146.

For AATTCCGT, the “PBM E-score” value stood at 0.115.

As for CTCACCAG, the “PBM E-score” value was -0.101.

For ACCAAGTC, the “PBM E-score” value is -0.021.

On to TGCCGCAA, for which the “PBM E-score” value turned out to be 0.0987.

Take CGGTGCAA: the “PBM E-score” value was -0.0174.

With AGGAACAT, the “PBM E-score” value is -0.131.

TATGAGAA: the “PBM E-score” value was 0.0987.

Turning to AGAAACTA, the “PBM E-score” value was -0.101.

Turning to CTCAGCTA, the “PBM E-score” value was -0.184.

In the case of CAAGTAGC, the “PBM E-score” value worked out at 0.00867.

For the sequence ATAATTCG, the “PBM E-score” value was determined as 0.124.

As for CGTCCACG, the “PBM E-score” value turned out to be 0.286.

Regarding GATCAATA, the “PBM E-score” value came to 0.0988.

As to CTAACTGA, the “PBM E-score” value was 0.0393.

In the case of AGCTTTTA, the “PBM E-score” value is -0.0137.

Regarding CGGGCTAC, the “PBM E-score” value was found to be 0.0755.

With ACGCGAAC, the “PBM E-score” value was -0.134.

Take GCGACGCA: the “PBM E-score” value was found to be 0.196.

For the sequence TGTACTAA, the “PBM E-score” value came to 0.0702.

As to ACCATGGA, the “PBM E-score” value was -0.0972.

CGTGTCTA: the “PBM E-score” value turned out to be 0.0948.

Regarding GCGTGGAC, the “PBM E-score” value is -0.011.

As for CTCTGGGA, the “PBM E-score” value was -0.207.

As to AGTCCACC, the “PBM E-score” value was -0.0728.

AGTGGGCA: the “PBM E-score” value is 0.0126.

Take AAGAAGAG: the “PBM E-score” value is -0.0782.

As to GTGGTCAA, the “PBM E-score” value was 0.0649.

Turning to GAAATACA, the “PBM E-score” value is -0.00588.

Take CGAGATAC: the “PBM E-score” value is 0.15.

In the case of CCCCCGAC, the “PBM E-score” value was -0.0634.

Take CCTCACCG: the “PBM E-score” value was -0.0441.

As for GTGTTCAA, the “PBM E-score” value was found to be 0.102.

As for GAGCCAGC, the “PBM E-score” value is -0.189.

Take ACCGAGGT: the “PBM E-score” value is -0.113.

On to CGAATAAC, for which the “PBM E-score” value came out at 0.122.

With ACTTTAAA, the “PBM E-score” value amounted to 0.175.

In the case of AGACGTGG, the “PBM E-score” value is -0.0183.

For AGTGCTCA, the “PBM E-score” value is -0.0111.

Regarding CTCTCTTA, the “PBM E-score” value is -0.0765.

Turning to CGAAGTTA, the “PBM E-score” value is -0.0442.

In the case of AAAGCGGC, the “PBM E-score” value is -0.159.

AAGTCCTC: the “PBM E-score” value was -0.17.

Consider CGATTATA, for which the “PBM E-score” value came out at 0.218.

Regarding CAAGCTCA, the “PBM E-score” value was -0.0752.

In the case of AGCGGTGG, the “PBM E-score” value is -0.177.

AATCCTGT: the “PBM E-score” value stood at 0.143.

On to GAATTCGA, for which the “PBM E-score” value was -0.0643.

On to CTTATGAC, for which the “PBM E-score” value is 0.0549.

Consider AGCATGTA, for which the “PBM E-score” value worked out at 0.0385.

GCTGAGAA: the “PBM E-score” value is -0.109.

As to CGTTATTC, the “PBM E-score” value is 0.0363.

As to ACTTTTCC, the “PBM E-score” value amounted to 0.157.

As for AGTGTTCC, the “PBM E-score” value worked out at 0.152.

In the case of GGGGACCA, the “PBM E-score” value was -0.106.

In the case of CCATGCAC, the “PBM E-score” value is -0.0763.

As for GGTATACC, the “PBM E-score” value is -0.207.

For the sequence CACCGAGC, the “PBM E-score” value was -0.0571.

Consider TATGAGCA, for which the “PBM E-score” value is -0.0345.

In the case of TGTTGCAA, the “PBM E-score” value stood at 0.115.

With ATAGAGAG, the “PBM E-score” value was -0.213.

AACCCAAA: the “PBM E-score” value was determined as 0.0493.

As for ACTAGCTG, the “PBM E-score” value amounted to 0.187.

For the sequence CAGTGACA, the “PBM E-score” value worked out at 0.3.

ATATAAAT: the “PBM E-score” value was determined as 0.3.

Consider CAAGCCCC, for which the “PBM E-score” value is -0.272.

Regarding GAGCGGCA, the “PBM E-score” value is -0.039.

In the case of AGTTAGCG, the “PBM E-score” value is -0.0148.

Turning to CCCGCGAC, the “PBM E-score” value worked out at 0.0144.

Take GTAACAGA: the “PBM E-score” value is 0.00642.

The values above are taken from the supplement of paper PMC3334620.
